Entries after “also recorded” stand apart in the source; their conditions may differ. At least one compound was matched to its structure with a doubt left.
Experiments:
canine brachial arteries [1] = test: Contractile function of artery segments in organ chambers after WT soak; assay type: cell-based
From the text: Canine brachial arteries, equivalents of radial arteries in humans, were used in this study since they were more readily available and we could obtain longer segments than human radial arteries. Based on previous publications, it has been determined that the contractile and relaxation properties of these canine vessels are similar to the properties of human radial arteries in organ chamber studies [Corvera et al. (2003) Pretreatment with phenoxybenzamine attenuates the radial artery's vasoconstrictor response to α-adrenergic stimuli, J. Thorac. Cardiovasc. Surg., 126:1549-54; Velez et al., 2001]. The arteries were harvested as a pedicle graft and stored in 4° C. KH buffer (in mM/1: glucose 11; magnesium sulfate, 1.2; potassium phosphate 1.2; KCl, 4.7; sodium chloride 118; calcium chloride, 2.5) at pH 7.4 until ready for use.
The vessels were carefully skeletonized, cut into 4-5 mm segments, and soaked in a 1 mM solution of WT in KH buffer and 10% DMSO (used to increase solubility of WT), pH 7.4 at 37° C. for 60 min. Control vessels were soaked in KH buffer with 10% DMSO only. The vessels were then rinsed well with KH to remove all unbound drug. For testing of contractile responses, the arterial segments were mounted on steel hooks in glass organ chambers (Radnoti Glass, Monrovia, Calif.) in KH buffer at pH 7.4 and 37° C., and continuously bubbled with a gas mixture of 95% O2 and 5% CO2. […]

canine brachial arteries [2] = test: Endothelial-independent smooth muscle relaxation to SNP after U46 pre-constriction; assay type: cell-based; conditions: 48 h; higher concentrations of SNP; pre-contraction with 3 μM U46619
Experimental: Cardiovasc. Surg., 126:179-85; van Son et al. (1992) Detrimental sequelae on the wall of the internal mammary artery caused by hydrostatic dilation with diluted papaverine solution, J. Thorac. Cardiovasc. Surg., 104:972-6]. Therefore, to test the vasorelaxation capacity of the vessels after treatment with WT, the vessels were pre-constricted with 3 μM U46, and then exposed to incrementally increasing concentrations (50 nM to […]) of SNP, a direct smooth muscle dilator.
The capacity of the vascular smooth muscle to relax independently of the endothelium was evaluated by pre-constricting vessels with U46, followed by exposure to incrementally increasing concentrations of SNP, a direct smooth muscle relaxing agent. […] Two hours after soaking, control vessels relaxed 99.04±7.30% from their pre-constricted state in response to SNP.

With `COC[C@H]1OC(=O)c2coc3c2[C@@]1(C)C1=C(C3=O)[C@@H]2CCC(=O)[C@@]2(C)C[C@H]1OC(C)=O` [WT, Wortmannin] the “contraction versus control vessels (in words)” value (canine brachial arteries [1]; NE, 5-HT, U46619, KCl, 2 and 48 h after soaking in 1 mM WT) was “contracted significantly less at both the 2 and 48 h time point”, the “limitation of vasoconstriction (in words)” value (canine brachial arteries [1]; early period after pre-treatment) was “almost completely; also recorded: nearly abolishes vasoconstriction” and the “relaxation to SNP versus control vessels (in words)” value (canine brachial arteries [2]) was “no difference between groups at higher concentrations”.

Source: patent US20060079573A1, “Methods and compositions for preventing vasospasm” (priority 2004, published 2006)
